From PubChem BioAssay AID493014 (National Center for Advancing Translational Sciences (NCATS), 2011)
“And” between values parts separate entries of the source, which are not always exact repeats. Identical values can stand only once. The list shows a part of the results. Further columns of the screen follow, without active or inactive calls. The list favours compounds with an active or inconclusive main result. Potencies come from curve fits of mixed quality, noted in brackets.

Experiment: qHTS Assay to Find Inhibitors of Chronic Active B-Cell Receptor Signaling
Details: ABC-DLBCL IkBa-CBG/CBR reporter, luminescence ratio (green luciferase fused to IkBa over red control in TMD8 lymphoma cells), 4 h
Method in brief: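 Doxycycline induced both beetle luciferases in TMD8 lymphoma cells; IKK-driven degradation limits the IkappaBalpha-fused green signal, while red luminescence normalises for cell number and nonspecific effects. Compounds tested up to 46 uM, 4 hrs.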

[1] = measured here: CBR red luminescence, cell number
[2] = measured here: IkBa-CBG green luminescence

NC(=O)C1CC=CCC1C(=O)OCC(Cl)=C(Cl)Cl (centres undefined)
AC50 [1]: 35.5 µM [falling, partial curve, poor fit]

Fc1ccccc1-c1nc(NCc2ccccc2)c2ccccc2n1
AC50 [1]: 10 µM [falling, partial curve, poor fit]

O=C(NC(Cc1ccccc1)c1nc2ccccc2[nH]1)C1CC(=O)N(c2ccc3c(c2)OCCO3)C1 (centres undefined)
AC50 [1]: 20 µM [falling, partial curve, poor fit]

O=C(c1ccccc1)N1CCC(c2nc(-c3ccc(S(=O)(=O)N4CCOCC4)cc3)no2)CC1
AC50 [1]: 22.4 µM [falling, single point]

CC(=O)Nc1nc(CCN2C(=O)c3ccccc3C2=O)cs1
AC50 [1]: 0.562 µM [rising, full curve, poor fit]

CC(C)C(=O)Nc1nnc(CCc2ccccc2)s1
AC50 [1]: 1.78 µM [rising, partial curve, poor fit]

Cc1ccc(NC(=S)N/C(=N/S(=O)(=O)c2ccccc2)c2ccccc2)cc1
AC50 [1]: 29.1 µM [falling, single point]

COc1ccc(-c2ccc(OC)c([C@H]3[C@H]4C=CC[C@@H](C)[C@@H]4C(=O)N3Cc3ccccc3)c2)cc1C
AC50 [1]: 1 µM [rising, full curve, poor fit]

COC(=O)c1ccc2c(=O)n(CCCCCC(=O)NCc3ccccn3)c(=O)[nH]c2c1
AC50 [1]: 0.82 µM [falling, full curve, poor fit] | AC50 [2]: 0.259 µM [rising, full curve]

O=C1NCCNC1(c1c[nH]c2ccccc12)C(F)(F)F (centres undefined)
AC50 [1]: 29.1 µM [rising, single point]

COc1ccc(N2CCN(C(=O)Cc3cccs3)CC2)cc1
AC50 [1]: 14.6 µM [rising, partial curve]

O=C(Nc1nnc(C2CC2)s1)c1cc(-c2ccccc2)nn1-c1ccccc1
AC50 [1]: 14.1 µM [falling, partial curve, poor fit]

COc1cccc(/C=N/Nc2nc(Nc3ccc([N+](=O)[O-])cc3)nc(N3CCCC3)n2)c1O
AC50 [1]: 2.51 µM [falling, full curve, poor fit]

Cc1ccnc(NC(=O)c2ccc(N3C(=O)CCC3=O)cc2)c1
AC50 [1]: 10 µM [falling, partial curve, poor fit]

O=C(NCCc1ccccc1)c1ccccc1NC(=O)C1CCCCC1C(=O)O (centres undefined)
AC50 [1]: 12.6 µM [falling, single point]

Cc1ccc(N=C2NC(=O)/C(=C/c3cccnc3)S2)c(C)c1
AC50 [1]: 22.4 µM [falling, single point]

NNC(=O)C(Cc1cnc[nH]1)NC(=O)OCc1ccccc1 (centres undefined)
AC50 [1]: 7.08 µM [rising, single point]

O=[N+]([O-])c1ccc(Oc2cccc(C(F)(F)F)c2)nc1
AC50 [1]: 6.31 µM [rising, partial curve]

CC(O)c1nc2ccccc2n1C1CCCCC1 (centres undefined)
AC50 [1]: 4.11 µM [rising, partial curve]

Cc1ccc(NC(c2ccccc2)c2nc3ccccc3[nH]c2=O)cc1 (centres undefined)
AC50 [1]: 3.55 µM [falling, partial curve, poor fit]

Clc1ccc(-c2[nH]ncc2N=Nc2ccccc2)cc1
AC50 [1]: 12.6 µM [rising, single point]

COc1cc(/C=N/Nc2ncc(C(F)(F)F)cc2Cl)cc(OC)c1O
AC50 [1]: 20.6 µM [rising, partial curve, poor fit]

COc1ccc(Br)cc1C(=O)Nc1ccc(C(=O)NCC(C)C)cc1
AC50 [1]: 17.8 µM [rising, partial curve, poor fit]

CC(=O)N1CCN(c2ccc(NC(=O)c3ccc([N+](=O)[O-])o3)cc2Cl)CC1
AC50 [1]: 7.94 µM [falling, partial curve, poor fit]

O=C(O)c1ccc(/C=N/Nc2ccc(F)cc2F)cc1
AC50 [1]: 2.82 µM [falling, partial curve]

COc1ccc(NC(=O)c2ccc(NC(=O)CSc3nccc(=O)[nH]3)cc2)cc1
AC50 [1]: 5.62 µM [falling, single point]

C/C(=N\Nc1nc2ccccc2s1)c1ccc(Br)s1
AC50 [1]: 5.01 µM [falling, full curve]

CSc1ccc(CN2CCC(C(=O)NCc3ccc(C)cc3)CC2)cc1
AC50 [1]: 0.0891 µM [rising, full curve, poor fit]

CN(C)CCCN(C(=O)c1ccco1)c1nc(-c2ccc(Cl)cc2)cs1
AC50 [1]: 17.8 µM [falling, partial curve, poor fit]

O=C(N/N=C/c1c(O)n(-c2ccc(Cl)cn2)c(=O)c2ccccc12)C1CC1
AC50 [1]: 18.4 µM [falling, single point]

COc1ccccc1NC(=O)/C=C\C(=O)O
AC50 [1]: 22.4 µM [falling, single point]

O=[N+]([O-])c1ccc(Sc2nnnn2-c2ccccc2)c(Cl)c1
AC50 [2]: 29.1 µM [falling, single point]

COc1cc(CNc2nc(C)c([N+](=O)[O-])c(C)c2C#N)cc(OC)c1
AC50 [1]: 14.6 µM [rising, partial curve, poor fit]

CCCN(C(=O)c1cccs1)c1c(N)n(Cc2ccccc2)c(=O)[nH]c1=O
AC50 [1]: 7.31 µM [rising, partial curve, poor fit]

CC(=O)c1c(OC(=O)c2ccco2)c2ccccc2n1C
AC50 [1]: 6.51 µM [falling, single point]

CCc1nc(SCC(=O)N2CCCC2)c2ccccc2n1
AC50 [2]: 4.11 µM [rising, partial curve, poor fit]

CCCOc1ccc(N2C(=O)CC(N3CCN(c4ccc([N+](=O)[O-])cc4)CC3)C2=O)cc1 (centres undefined)
AC50 [1]: 7.08 µM [falling, full curve, poor fit]

COc1ccc(NC(=O)CSc2nnc3ccc(-c4ccncc4)nn23)cc1OC
AC50 [1]: 35.5 µM [falling, single point]

NC(=O)c1ccsc1NC(=O)COC(=O)c1c(F)cccc1Cl
AC50 [1]: 2.06 µM [falling, full curve, poor fit]

CN(C)c1ccc(/C=C2\Oc3ccc(C#Cc4cccc(N)c4)cc3C2=O)cc1
AC50 [1]: 11.6 µM [rising, single point]

CN(C)C(CNC(=O)c1cccc(C#N)c1)c1ccco1 (centres undefined)
AC50 [1]: 10 µM [rising, single point]

CC(=O)Nc1ccc(N/C=C/C(=O)c2ccc(C)o2)cc1
AC50 [1]: 35.5 µM [rising, single point]

O=C(c1ccco1)N1CCc2[nH]nc(-c3ccccc3)c2C1
AC50 [1]: 15.8 µM [falling, single point]

Cn1c(=O)cc(NCCc2ccccc2)[nH]c1=O
AC50 [1]: 0.92 µM [falling, full curve, poor fit]

CCCCOC(=O)c1ccc(NC(=O)COC(=O)CSc2nc(C)cc(C)n2)cc1
AC50 [1]: 16.4 µM [rising, partial curve]

CC(C)(C)c1ccc(OCCC(=O)Nc2cccc(S(=O)(=O)N3CCCCC3)c2)cc1
AC50 [1]: 8.2 µM [falling, partial curve, poor fit]

CCOc1ccccc1C(=O)OCC(=O)Nc1nnc(-c2ccccc2)o1
AC50 [1]: 13 µM [falling, single point]

COCc1ccc(-c2c(-c3cc(OC)cc(OC)c3)oc(=O)c3cc(OC)c(OC)cc23)cc1
AC50 [1]: 0.731 µM [rising, full curve, poor fit]

O=C1S/C(=C\c2ccc(O)c([N+](=O)[O-])c2)C(=O)N1Cc1cccc([N+](=O)[O-])c1
AC50 [1]: 35.5 µM [falling, single point]

Cc1c(-c2cccc(Cl)c2)nc2ccccc2c1C(=O)OCC(=O)N(C)C1CCS(=O)(=O)C1 (centres undefined)
AC50 [2]: 10 µM [rising, partial curve, poor fit]

Cc1cccc(NC(=O)c2ccc3[nH]c(=O)c(=O)[nH]c3c2)n1
AC50 [1]: 6.31 µM [falling, partial curve, poor fit]

Cc1ccc([C@@H]2CC=C(C(=O)O)[C@H](c3cccc(Cl)c3)N2S(=O)(=O)c2ccc(C)cc2)cc1
AC50 [2]: 14.6 µM [rising, partial curve, poor fit]

Cc1ccc2nc(SCC(=O)Nc3ccc(F)c([N+](=O)[O-])c3)[nH]c2c1
AC50 [1]: 29.1 µM [falling, single point]

CCO[C@@H]1OC(C(N)=O)=C[C@H](C2CCCCC2)[C@H]1CCCO
AC50 [1]: 3.98 µM [rising, single point]

N/C(=N\OC(=O)c1cccs1)c1cccc(Br)c1
AC50 [1]: 5.62 µM [rising, partial curve]

O=C(Nc1ccc2c(c1)OCCO2)c1cnc2n(c1=O)CCS2
AC50 [1]: 4.61 µM [falling, full curve]

Cn1c(=S)[nH]c(=O)c2ncc(=O)[nH]c21
AC50 [1]: 31.6 µM [falling, partial curve, poor fit]

S=C(Nc1ccc(Cl)cc1Cl)NC1CCCCC1
AC50 [1]: 35.5 µM [falling, single point]

O=C(CC(C(=O)O)c1cccc(Cl)c1)c1ccccc1 (centres undefined)
AC50 [1]: 6.31 µM [rising, single point]

CN1CCN(CCCN2c3ccccc3Sc3ccc(Cl)cc32)CC1
AC50 [1]: 35.5 µM [falling, single point] and 10.3 µM [falling, partial curve, poor fit]

CCOc1ccc(C2C(C#N)=C(N)N3C(=C2C#N)Sc2ccccc23)cc1 (centres undefined)
AC50 [1]: 35.5 µM [rising, single point]

COc1ccc(OCc2cc(/C=N\NC(=O)c3ccccc3)ccc2OC)cc1
AC50 [1]: 12.6 µM [falling, partial curve, poor fit]

O=C(COC(=O)c1cc(Cl)ccc1[N+](=O)[O-])Nc1cccc2ccccc12
AC50 [1]: 18.4 µM [falling, single point]
